Values quoted from earlier work, collected in patent US20110015226A1, “Treatment of Energy Utilization Disease” (SUMMIT CORPORATION PLC, priority 2008, published 2011).
For at least one compound, name, drawing or mass did not settle the structure.

Biological target: rat intestinal maltase
Settings: Kato et al., 2008; read-out: IC50, rat small intestine maltase; cited from earlier work

In the case of `C[C@H]1O[C@H](O[C@H]2[C@H](O)[C@@H](O)[C@@H](O[C@H]3[C@H](O)[C@@H](O)C(O)O[C@@H]3CO)O[C@@H]2CO)[C@H](O)[C@@H](O)[C@@H]1N[C@H]1C=C(CO)[C@@H](O)[C@H](O)[C@H]1O` (stereo partly shown) [Acarbose], the IC50 is listed as 160 nM.
